Data as given in PubChem BioAssay AID602196 (INSERM, 2012).
Purpose: 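Modifiers of cisplatin sensitivity in A549 cells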. System: human A549 lung cancer cells. Reagents: siRNA pair against human genes. Time to read-out: 48 h transfection before cisplatin; time from cisplatin to read-out not stated. Treatment: cisplatin at a dose killing half of control-siRNA cells; exact dose and duration not given. Measurement: 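Cisplatin cell death as a shift from the 50% death seen with control siRNA; siRNAs toxic or growth-blocking alone scored 0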. Reading the numbers: two-siRNA summed score (-2 to +2): higher = both siRNAs protect from cisplatin killing; -2 means both sensitise; mean protection from cisplatin (shift in death): higher = protection from cisplatin killing. Call rule: 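Each siRNA scores 0 if harmful alone by LDH or WST-1, otherwise +1 if it reduces and -1 if it increases cisplatin killing; a gene is active when both siRNAs agree (sum +2 or -2)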. Meaning of the calls: active = both siRNAs shift cisplatin killing the same way; inactive = no consistent shift, or siRNA harmful alone.
Here is one part, drawn at random, of about 23,000 deposited reagents. 455 of them (2%) were called active. 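Active includes both protection and sensitisation; some change values fall well beyond the stated -50 to +50 range.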 Not all columns of the deposit are shown. Reagent sequences are not shown. Not given: the amount of reagent.

GPATCH11 (GeneID 253635) scored two-siRNA summed score (-2 to +2) = 1; mean protection from cisplatin (shift in death) (%) = 19.3; inactive.
With knock-down of FLJ37078, the screen gave two-siRNA summed score (-2 to +2) = 0; mean protection from cisplatin (shift in death) (%) = 5.1; inactive.
Against BUB3 (GeneID 9184) the deposit lists two-siRNA summed score (-2 to +2) = 0; mean protection from cisplatin (shift in death) (%) = -2.5; inactive.
With knock-down of BRINP3 (GeneID 339479) the results were two-siRNA summed score (-2 to +2) = -1; mean protection from cisplatin (shift in death) (%) = -3; inactive.
SLX9 (GeneID 85395) gave two-siRNA summed score (-2 to +2) = 0; mean protection from cisplatin (shift in death) (%) = -0.2; inactive.
COA8 (GeneID 84334) showed two-siRNA summed score (-2 to +2) = 1; mean protection from cisplatin (shift in death) (%) = -0.1; inactive.
MRPL9 (GeneID 65005) scored two-siRNA summed score (-2 to +2) = 0; mean protection from cisplatin (shift in death) (%) = 4.2; inactive.
MTCH1 (GeneID 23787) showed two-siRNA summed score (-2 to +2) = 1; mean protection from cisplatin (shift in death) (%) = 10.9; inactive.
Knock-down of LOC441404 resulted in: two-siRNA summed score (-2 to +2) = 0; mean protection from cisplatin (shift in death) (%) = 5.1; inactive.
GRB7 (GeneID 2886) scored two-siRNA summed score (-2 to +2) = -1; mean protection from cisplatin (shift in death) (%) = -9.5; inactive.
PTCH2 (GeneID 8643) showed two-siRNA summed score (-2 to +2) = 0; mean protection from cisplatin (shift in death) (%) = -4.6; inactive.
Depletion of MYT1 (GeneID 4661) came out at: two-siRNA summed score (-2 to +2) = 0; mean protection from cisplatin (shift in death) (%) = -7.1; inactive.
Silencing of LINC01949 (GeneID 55338) gave: two-siRNA summed score (-2 to +2) = 0; mean protection from cisplatin (shift in death) (%) = 19.9; inactive.
ZNF624 (GeneID 57547) scored two-siRNA summed score (-2 to +2) = 0; mean protection from cisplatin (shift in death) (%) = -4.6; inactive.
For PLA2G3 (GeneID 50487) the deposit lists two-siRNA summed score (-2 to +2) = 0; mean protection from cisplatin (shift in death) (%) = 17.7; inactive.
Against DICER1 (GeneID 23405), the values are two-siRNA summed score (-2 to +2) = 0; mean protection from cisplatin (shift in death) (%) = -4.1; inactive.
For TMEM183AP3 (GeneID 388104), the entry reads two-siRNA summed score (-2 to +2) = 1; mean protection from cisplatin (shift in death) (%) = 13; inactive.
For RPL34 (GeneID 6164), the values are two-siRNA summed score (-2 to +2) = 1; mean protection from cisplatin (shift in death) (%) = 5.6; inactive.
Depletion of PVT1 (GeneID 5820) gave: two-siRNA summed score (-2 to +2) = 0; mean protection from cisplatin (shift in death) (%) = -6.2; inactive.

4 entries from above, arranged by “mean protection from cisplatin (shift in death) (%)”, high to low:
MRPL9 (GeneID 65005) → two-siRNA summed score (-2 to +2) = 0; mean protection from cisplatin (shift in death) (%) = 4.2; Call = inactive
COA8 (GeneID 84334) → two-siRNA summed score (-2 to +2) = 1; mean protection from cisplatin (shift in death) (%) = -0.1; Call = inactive
SLX9 (GeneID 85395) → two-siRNA summed score (-2 to +2) = 0; mean protection from cisplatin (shift in death) (%) = -0.2; Call = inactive
BRINP3 (GeneID 339479) → two-siRNA summed score (-2 to +2) = -1; mean protection from cisplatin (shift in death) (%) = -3; Call = inactive

Next records:
FBXO38 (GeneID 81545) gave two-siRNA summed score (-2 to +2) = 1; mean protection from cisplatin (shift in death) (%) = 16.4; inactive.
For LOC442220, the values are two-siRNA summed score (-2 to +2) = 1; mean protection from cisplatin (shift in death) (%) = 9.6; inactive.
After knock-down of SLC13A1 (GeneID 6561) the results were two-siRNA summed score (-2 to +2) = 0; mean protection from cisplatin (shift in death) (%) = 13.4; inactive.
LOC441552 showed two-siRNA summed score (-2 to +2) = 1; mean protection from cisplatin (shift in death) (%) = 11.4; inactive.
After knock-down of SCPEP1 (GeneID 59342) the results were two-siRNA summed score (-2 to +2) = 0; mean protection from cisplatin (shift in death) (%) = 3.5; inactive.
PLEKHA2 (GeneID 59339) gave two-siRNA summed score (-2 to +2) = 1; mean protection from cisplatin (shift in death) (%) = 6.7; inactive.
After knock-down of MRGPRF (GeneID 116535), the record shows two-siRNA summed score (-2 to +2) = 0; mean protection from cisplatin (shift in death) (%) = -0.7; inactive.
LOC283480 gave two-siRNA summed score (-2 to +2) = 0; mean protection from cisplatin (shift in death) (%) = 6.2; inactive.
Against SMO (GeneID 6608), the values are two-siRNA summed score (-2 to +2) = -1; mean protection from cisplatin (shift in death) (%) = -2.4; inactive.
Against OR2M7 (GeneID 391196) the deposit lists two-siRNA summed score (-2 to +2) = 0; mean protection from cisplatin (shift in death) (%) = 10.6; inactive.
Against LOC140103 the deposit lists two-siRNA summed score (-2 to +2) = 1; mean protection from cisplatin (shift in death) (%) = 11.7; inactive.
Against MTHFD1L (GeneID 25902), the entry reads two-siRNA summed score (-2 to +2) = 0; mean protection from cisplatin (shift in death) (%) = -3.6; inactive.
